The values that follow come from paper PMC8081163.

Protein sequences, listed by entry. Tags and fused reporters are not part of them. Lines headed by an entry give the natural chain unless they say otherwise; changes in a name come on top.
UniProt Q61656: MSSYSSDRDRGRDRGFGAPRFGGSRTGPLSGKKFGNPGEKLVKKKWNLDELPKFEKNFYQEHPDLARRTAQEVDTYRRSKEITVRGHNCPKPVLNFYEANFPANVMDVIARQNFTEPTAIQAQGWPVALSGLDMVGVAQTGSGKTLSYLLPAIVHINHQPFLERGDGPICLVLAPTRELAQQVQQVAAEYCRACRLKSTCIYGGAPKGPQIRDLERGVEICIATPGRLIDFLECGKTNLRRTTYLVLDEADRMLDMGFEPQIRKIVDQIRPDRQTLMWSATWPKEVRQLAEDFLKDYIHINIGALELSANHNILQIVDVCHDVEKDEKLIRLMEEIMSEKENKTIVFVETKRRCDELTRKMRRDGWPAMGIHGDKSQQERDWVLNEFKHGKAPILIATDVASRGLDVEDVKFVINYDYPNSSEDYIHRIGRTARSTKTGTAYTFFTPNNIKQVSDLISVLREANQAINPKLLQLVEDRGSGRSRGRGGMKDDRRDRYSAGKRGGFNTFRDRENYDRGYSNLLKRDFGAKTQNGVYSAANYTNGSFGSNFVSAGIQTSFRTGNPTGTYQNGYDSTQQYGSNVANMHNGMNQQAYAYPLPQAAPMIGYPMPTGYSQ
UniProt Q8C3P7: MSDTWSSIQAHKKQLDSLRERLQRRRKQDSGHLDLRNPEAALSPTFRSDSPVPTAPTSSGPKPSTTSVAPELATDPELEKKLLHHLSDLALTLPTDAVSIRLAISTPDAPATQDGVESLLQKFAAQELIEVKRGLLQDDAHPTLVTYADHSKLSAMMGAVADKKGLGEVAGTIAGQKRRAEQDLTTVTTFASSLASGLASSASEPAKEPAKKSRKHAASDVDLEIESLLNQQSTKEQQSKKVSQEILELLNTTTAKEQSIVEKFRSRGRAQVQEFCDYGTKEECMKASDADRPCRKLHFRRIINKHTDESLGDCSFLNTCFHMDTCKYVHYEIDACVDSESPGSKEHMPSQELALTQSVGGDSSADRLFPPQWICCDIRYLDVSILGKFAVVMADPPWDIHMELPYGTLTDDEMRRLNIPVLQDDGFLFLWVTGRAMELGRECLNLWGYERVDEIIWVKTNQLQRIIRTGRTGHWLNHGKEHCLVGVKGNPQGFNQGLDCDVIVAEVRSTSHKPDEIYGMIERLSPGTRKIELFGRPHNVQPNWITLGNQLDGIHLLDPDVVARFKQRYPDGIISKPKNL

What all share (assay): co-IP; HEK293T co-transfected with Myc-DDX5 (or mutants) and Flag-METTL3 (or mutants), 24 h, NP40 lysis; IP with mouse anti-Flag antibody (METTL3 mutants, Fig 2D) or anti-Myc antibody (DDX5 mutants, Fig 2G) and protein G/A magnetic beads; western blot
For orientation: Immunoblotting shows a protein as a band on a membrane.

The target of test [1] is Myc-DDX5 with deletion of the DEXDc domain (mouse) (UniProt Q61656).
For test [2], the target named is Myc-DDX5 with deletion of the P68HR domain (mouse) (UniProt Q61656).
Test [3] addresses Myc-DDX5 with deletion of the HELICc domain (mouse) (UniProt Q61656).

Results are given in words; binding and its absence hold for the method and conditions named. In cells and extracts the contact can be indirect. For part of these data: A result given as binding can be weak or reduced; the word gives no strength.

Take “Flag-METTL3 (mouse) (from UniProt Q8C3P7 1-580)”: the binding result is recorded as “binds” in test [1], “no binding” in test [2] and “binds” in test [3].
